Among all 320,000 compounds or so, about 2,100 (0.66%) were called active. This list was built around the results that the source calls inconclusive (neither active nor inactive); the mix of calls is not that of the screen. The call rests on the fitted dose curve; in most records, active means well fitted inhibition curve with a large enough effect in the signal ratio, with a control signal flat (not every such curve was filed as active); inconclusive means small, poorly fitted or top-dose-only effect, or effect the other way, or a change in a side signal; inactive means flat fitted curve, though single readings scatter; the % refers to the signal ratio. Where the call is inconclusive, the potency comes from a doubtful curve fit.
Test: qHTS Assay for Lipid Storage Modulators in Drosophila S3 Cells
Conditions: BODIPY lipid droplet fluorescence, 18-24 h, cells fed with added oleic acid; lipid storage change, negative = inhibition: at 46.1 µM (top of the series) unless noted
In short: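 Laser-scanning cytometry quantifies lipid droplet accumulation (500–530 nm total intensity; droplet/cell object ratio) in oleic acid-fed (400 uM added) Drosophila S3 cells treated with a concentration series. 20 uM Triacsin C defined 100% inhibition.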
On the % scale 0 is the no-effect control and ±100 the full control effect; potency means the concentration at half of the fitted maximal effect.

| Structure (SMILES) | lipid storage change, negative = inhibition | Potency |
| --- | --- | --- |
| CC(=O)Oc1ccc(-c2ccc(C(=O)OCC(=O)N(C)CC(=O)Nc3ccccc3Cl)cc2)cc1 | inconclusive: -18.4% |  |
| O=C(CCC(=O)OCc1ccc([N+](=O)[O-])cc1)Nc1ccccc1Cl |  | inconclusive: 29.1 µM [cytotoxic, partial curve, poor fit] |
| CCOC(=O)c1ccc(NC(=O)C2C3C=CC(C3)C2C(=O)O)cc1 (stereo unspecified) |  | inconclusive: 0.0058 µM [falling, full curve, poor fit] |
| O=Cc1cc(N=Nc2cccc(C(=O)O)c2)ccc1O | inconclusive: 16.5% |  |
| CC1=C(C(=O)N(C)C)C(c2ccccc2OC(F)F)NC(=O)N1 (stereo unspecified) | inconclusive: 7.43% |  |
| O=C(c1ccco1)N1CCN(C(=O)C2CCCN(S(=O)(=O)Cc3ccccc3)C2)CC1 (stereo unspecified) |  | inconclusive: 3.66 µM [activator, partial curve, poor fit] |
| CC1CN(S(=O)(=O)c2cc(C(=O)NCc3ccncc3)ccc2Cl)CC(C)O1 (stereo unspecified) |  | inconclusive: 0.116 µM [activator, full curve, poor fit] |
| C/[N+]([O-])=C\CC(=O)c1ccc(-c2ccccc2)cc1 | inconclusive: 36.6% |  |
| CN(C)c1cccc(C(=O)N2CCCC(C(=O)c3cc(F)ccc3F)C2)c1 (stereo unspecified) | inconclusive: -1.19% |  |
| COc1ccccc1N1CCN(C(=O)C2CCN(C(=O)c3cccc(Cl)c3)CC2)CC1 |  | inconclusive: 29.1 µM [falling, single point] |
| Nc1nonc1-c1noc(N2CCCCC2)n1 | inconclusive: -15.4% |  |
| COC(=O)C1=C(C)NC(C)=C(C(=O)OC)C1c1cc2cc(C)ccc2[nH]c1=O | inconclusive: 54.2% |  |
| CCOC(=O)c1cnn(-c2ccccc2)c1-n1cccc1C(=O)C(=O)N(CC)CC | inconclusive: 20.7% |  |
| O=C(Cn1cc([N+](=O)[O-])ccc1=O)NCc1ccc(Cl)cc1Cl | inconclusive: 78.6% |  |
| CC1=C(C(=O)OCC2CCCO2)C(c2ccc(O)cc2)NC(=O)N1 (stereo unspecified) | inconclusive: -1.65% |  |
| COc1ccccc1NC(=O)Cc1ccc(-c2ccccc2)cc1 |  | inconclusive: 0.58 µM [activator, single point] |
| CN(C)c1ccc(N=Nc2ccccc2C(=O)OCC(=O)NC2CCCC2)cc1 | inconclusive: -27.1% |  |
| CC(C)C(C)(C#N)NC(=O)CN1C(=O)NC2(CCCc3ccccc32)C1=O (stereo unspecified) | inconclusive: 2.52% |  |

Two successive entries already listed:

| Structure (SMILES) | lipid storage change, negative = inhibition | Potency |
| --- | --- | --- |
| CCOC(=O)c1ccc(NC(=O)C2C3C=CC(C3)C2C(=O)O)cc1 (stereo unspecified) |  | inconclusive: 0.0058 µM [falling, full curve, poor fit] |
| O=Cc1cc(N=Nc2cccc(C(=O)O)c2)ccc1O | inconclusive: 16.5% |  |

(listing goes on)

| Structure (SMILES) | lipid storage change, negative = inhibition | Potency |
| --- | --- | --- |
| COc1ccc(S(=O)(=O)N2CCOCC2)cc1NC(=O)c1cccc(Cl)c1 |  | inconclusive: 16.4 µM [falling, single point] |
| CCOc1cc(CNn2cnnc2)ccc1OCC(=O)NC1CCCCC1 |  | inconclusive: 4.61 µM [activator, single point] |
| CCN(Cc1ccncc1)C(=S)Nc1ccc(Cl)cc1 | inconclusive: -14.2% |  |
| O=C(COC(=O)c1ccc(CN2CCCC2=O)cc1)Nc1ccc(F)cc1 | inconclusive: -7.18% |  |
| COc1ccc(-c2noc(N3CCC(C(=O)Nc4ccc(F)cc4F)CC3)n2)cc1 | inconclusive: 8.98% |  |
| Cc1sc2ncnc(N3CCC(C(=O)Nc4cc(Cl)ccc4Cl)CC3)c2c1C | inconclusive: 13.3% |  |
| O=C(CN1CCN(Cc2ccccc2)CC1)c1ccccc1 |  | inconclusive: 29.1 µM [activator, single point] |
| Cc1cccc(C)c1OCC(=O)NCC1COc2ccccc2O1 (stereo unspecified) |  | inconclusive: 1.64 µM [activator, full curve] |
| COc1cccc(CNC(=O)CSCc2cnn(-c3ccccc3)c2-n2cccc2)c1OC |  | inconclusive: 0.092 µM [falling, full curve, poor fit] |
| COc1ccc(NS(=O)(=O)c2ccc(C)c(C(=O)N3CCC3)c2)cc1 | inconclusive |  |
| Cc1ccc(S(=O)(=O)N2CCOCC2)cc1C(=O)OCC(=O)NC1CCCC(C)C1C (stereo unspecified) |  | inconclusive: 0.0116 µM [falling, full curve, poor fit] |
| CCCc1nc2ccccc2c(C(=O)OCC(=O)NCc2ccco2)c1CC |  | inconclusive: 6.51 µM [activator, single point] |
| COc1ccc(C(=O)NC(=S)NC(C)C)cc1Br |  | inconclusive: 1.03 µM [activator, full curve, poor fit] |
| N#Cc1nc(COc2ccc(-c3ccccc3)cc2)oc1NCCCN1CCOCC1 |  | inconclusive: 2.91 µM [activator, partial curve] |
| CCc1ccc(NC(=O)CNC(=O)Cn2ccc3ccccc3c2=O)cc1 | inconclusive: 180% |  |
| O=C(CSc1nnc2ccccn12)NCc1ccc2c(c1)OCO2 |  | inconclusive: 6.51 µM [falling, single point] |
| COc1ccc(CN2CCCC(C(=O)N3CCCCC3)C2)c(OC)c1 (stereo unspecified) |  | active: 18.4 µM |
| CCC(SCC(=O)OC)C(=O)Nc1nnc(C(C)C)s1 (stereo unspecified) |  | inconclusive: 0.0065 µM [falling, full curve, poor fit] |

— PubChem BioAssay AID2685 (National Center for Advancing Translational Sciences (NCATS), 2010)
